According to patent US7092825B1, “Protein engineering” (The University of Queensland, priority 1998, dated 2006):
Entries after “also recorded” stand apart in the source; their conditions may differ. Not every detail of the peptide structures is certain; ends, links or a residue may be inferred. Positions of bridges follow the written chain, without caps; N, C: chain ends. Residues, ends and D or L forms follow the SMILES beside them.

Experiments:
[1] = target: T1, human Growth Hormone Receptor (hGHR) (Homo sapiens, UniProt P10912); test: Growth Hormone proliferation assay (hGH-stimulated BaF3 cell proliferation, MTT); type: cell-based; details: BaF3 cells, 0.5 ng/mL hGH
T1 construct: expressed in transfected cells; host or cells: BaF-B03 (BaF3) pro-B cells
T1 sequence (P10912 19-638): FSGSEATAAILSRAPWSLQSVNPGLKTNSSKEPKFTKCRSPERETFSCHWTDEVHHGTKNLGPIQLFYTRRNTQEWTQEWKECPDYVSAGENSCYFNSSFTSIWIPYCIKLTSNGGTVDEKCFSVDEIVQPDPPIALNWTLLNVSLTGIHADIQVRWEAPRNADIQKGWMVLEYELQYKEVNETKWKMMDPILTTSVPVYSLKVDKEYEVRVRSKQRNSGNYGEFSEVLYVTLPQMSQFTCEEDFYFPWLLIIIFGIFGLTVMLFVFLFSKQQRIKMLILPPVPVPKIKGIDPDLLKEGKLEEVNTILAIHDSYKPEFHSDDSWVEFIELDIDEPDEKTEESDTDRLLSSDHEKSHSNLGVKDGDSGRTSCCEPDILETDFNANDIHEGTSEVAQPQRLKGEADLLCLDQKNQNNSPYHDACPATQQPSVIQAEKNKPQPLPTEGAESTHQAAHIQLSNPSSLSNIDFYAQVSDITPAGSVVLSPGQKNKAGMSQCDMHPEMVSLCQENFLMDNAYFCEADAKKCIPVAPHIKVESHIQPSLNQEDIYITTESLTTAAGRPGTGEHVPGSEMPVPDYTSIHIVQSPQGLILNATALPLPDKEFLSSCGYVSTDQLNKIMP
Description: SCY01 was tested for biological function by bioassay using the BaF3 cell line, which cells normally respond to GH. SCY01 was assayed at various concentrations to check its ability to inhibit BaF3 cell proliferation in response to either 0.5 ng/mL hGH, or as a control, 50 Units/mL IL-3.
BaF-B03 cells (a pro B cell line) that stably express the human Growth Hormone Receptor (hGHR) are used in this assay since they are able to elicit a GH-specific response at concentrations as low as 0.1 ng/mL hGH (4.54 pM). These cells also endogenously express the IL3 receptor and require IL3 or GM-CSF to survive in culture. The assay is based on that of Mossman, 1983, J. Immunol. Meth. 65 55, and involves the following procedure:— • (i) culture cells in RPMI-1640 medium supplemented with 10% (v/v) foetal bovine serum (FBS) and 100 units/mL IL3 under 5% CO2 at 37° C. Allow the culture to reach mid-log growth phase; • (ii) centrifuge cells at 500×g and wash with PBS to remove IL3 from the culture medium. Repeat the centrifugation and resuspend in 1 mL of RPMI-1640 plus 0.5% (v/v) FBS. […] Allow plate to rest in the dark for 5 minutes before reading; • (x) read plate at 595 nm on a microplate reader. Values obtained are directly proportional to cell number (as measured by mitochondrial dehydrogenase levels).

IL3 receptor = target: T2, IL3 receptor (Mus musculus, UniProt P26952); test: IL-3 induced BaF3 cell proliferation (control); type: cell-based; details: BaF3 cells, 50 Units/mL IL-3 (control)
T2 construct: These cells also endogenously express the IL3 receptor; endogenous in cells; host or cells: BaF-B03 (BaF3) pro-B cells
T2 sequence (P26952 17-396): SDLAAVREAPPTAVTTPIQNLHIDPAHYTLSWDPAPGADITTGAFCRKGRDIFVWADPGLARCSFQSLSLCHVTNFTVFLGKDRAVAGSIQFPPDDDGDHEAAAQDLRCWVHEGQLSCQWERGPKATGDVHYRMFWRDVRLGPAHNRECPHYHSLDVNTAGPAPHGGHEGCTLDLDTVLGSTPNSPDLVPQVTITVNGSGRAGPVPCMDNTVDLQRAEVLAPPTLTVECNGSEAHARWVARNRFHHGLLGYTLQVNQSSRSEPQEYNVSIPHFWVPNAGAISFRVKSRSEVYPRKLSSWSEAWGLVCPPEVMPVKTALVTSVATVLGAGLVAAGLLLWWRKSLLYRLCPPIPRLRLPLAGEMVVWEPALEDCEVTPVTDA

[2] = Circular dichroism, stability of helical structure; type: physicochemical

For `CC[C@H](C)[C@@H]1NC(=O)[C@@H]2CSSC[C@H](NC(=O)[C@H](Cc3ccccc3)NC(=O)[C@H](C)N)C(=O)N[C@@H](CC(N)=O)C(=O)N[C@@H](CC(C)C)C(=O)N[C@@H](CCCNC(=N)N)C(=O)N[C@@H](CCCCN)C(=O)N[C@H]3CSSC[C@H](NC(=O)[C@H](CCCCN)NC(=O)[C@H](CC(=O)O)NC(=O)CNC1=O)C(=O)N[C@@H](CCC(=O)O)C(=O)N[C@H](C(=O)N[C@H](C(=O)N[C@@H](CCCCN)C(N)=O)C(C)C)CSSC[C@H](NC(=O)[C@H](CCCCN)NC(=O)[C@H](CC(=O)O)NC(=O)[C@H](CCC(N)=O)NC3=O)C(=O)N[C@@H](CCC(=O)O)C(=O)N[C@@H]([C@@H](C)O)C(=O)N[C@@H](Cc1ccccc1)C(=O)NCC(=O)N[C@@H](CC(C)C)C(=O)N[C@@H](CC(C)C)C(=O)NCC(=O)N[C@@H](CCCCN)C(=O)N2` [SCY01] (H-AFCNLRKCQDKCETFGLLGKCIGDKCECVK-NH2; disulfide 3-21, 8-26, 12-28), the “inhibition of GH-stimulated proliferation” value [1] was “displayed an inhibitory activity; also recorded: inhibiting the growth response”, the “inhibition of IL-3 induced proliferation” value (IL3 receptor) was “no inhibitory activity was observed and not” and the “helical structure by CD” value ([2]; addition of TFE, Guanidine.HCl or temperature) was “unchanged”. For the same compound, the “change in structure by CD spectra” value ([2]; temperature changes or addition of Trifluroethanol) was “little change in the structure”.
